Measured values published in patent US20110201649A1, “AGRICULTURAL COMPOSITION” (SUMITOMO CHEMICAL COMPANY, LIMITED, priority 2008, published 2011).
Some results were stated once for a whole list of compounds, not compound by compound.

Tested on: Cucumber Powdery Mildew (Sphaerotheca fuliginea)
Format: in vivo
Settings: cucumber (Sagami-Hanjiro), foliar application 500 ppm, inoculated with spores after application, checked after 10 days at 23° C.

Row | Structure (SMILES) | infected area on the treated plant as share of the infected area on a non-treated plant
1 | Nc1ncccc1-c1cnn(Cc2cccc(Oc3ccccc3)c2)c1 [compound 1503] | ≤ 30%
2 | Nc1ncccc1-c1cn(Cc2cccc(Oc3ccccc3)c2)nn1 [compound 2503] | ≤ 30%
